Measurements: paper PMC7042299
Changes are numbered by the printed parent chain. Results are given in words; binding and its absence hold for the method and conditions named. In cells and extracts the contact can be indirect. Some binding calls cover weakened binding; strength is not graded here. Tags and fused reporters may be left off the sequences shown.

Key:
[1] = target: T1, T7-DHX34 p.Tyr515Cys (human) (UniProt Q14147); assay: co-IP; HEK293T cells co-transfected with T7-DHX34 (wild type or variant) and FLAG-UPF1; anti-T7 immunoprecipitates probed for UPF1
T1 sequence: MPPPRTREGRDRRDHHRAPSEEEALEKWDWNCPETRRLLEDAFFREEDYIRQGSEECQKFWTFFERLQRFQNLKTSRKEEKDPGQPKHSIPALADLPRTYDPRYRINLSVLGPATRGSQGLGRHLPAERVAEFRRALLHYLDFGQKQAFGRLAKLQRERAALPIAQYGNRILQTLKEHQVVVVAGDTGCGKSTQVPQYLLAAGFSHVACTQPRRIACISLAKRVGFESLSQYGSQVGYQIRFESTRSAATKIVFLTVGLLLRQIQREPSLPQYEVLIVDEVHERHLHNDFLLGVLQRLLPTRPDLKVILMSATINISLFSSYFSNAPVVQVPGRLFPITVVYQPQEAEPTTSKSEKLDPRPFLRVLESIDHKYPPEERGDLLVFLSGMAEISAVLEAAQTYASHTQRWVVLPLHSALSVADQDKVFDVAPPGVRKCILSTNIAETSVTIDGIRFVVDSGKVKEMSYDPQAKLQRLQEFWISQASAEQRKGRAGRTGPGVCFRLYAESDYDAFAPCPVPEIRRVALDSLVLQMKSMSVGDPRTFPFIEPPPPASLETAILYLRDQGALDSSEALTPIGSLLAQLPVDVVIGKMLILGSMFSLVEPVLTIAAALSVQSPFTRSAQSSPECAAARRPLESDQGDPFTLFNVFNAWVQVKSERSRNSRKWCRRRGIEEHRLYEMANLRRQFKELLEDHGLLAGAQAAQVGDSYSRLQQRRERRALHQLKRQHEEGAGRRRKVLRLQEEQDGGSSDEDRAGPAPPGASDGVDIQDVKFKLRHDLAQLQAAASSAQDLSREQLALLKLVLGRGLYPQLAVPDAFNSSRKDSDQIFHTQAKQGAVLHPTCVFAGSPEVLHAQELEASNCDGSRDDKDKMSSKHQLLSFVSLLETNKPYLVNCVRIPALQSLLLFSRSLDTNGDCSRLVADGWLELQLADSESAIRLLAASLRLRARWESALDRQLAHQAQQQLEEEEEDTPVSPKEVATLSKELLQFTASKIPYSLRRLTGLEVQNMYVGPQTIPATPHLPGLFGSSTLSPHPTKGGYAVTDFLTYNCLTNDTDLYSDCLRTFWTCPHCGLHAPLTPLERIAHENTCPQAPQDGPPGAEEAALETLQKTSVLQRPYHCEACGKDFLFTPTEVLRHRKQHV

[2] = target: T2, T7-DHX34 p.Glu444Asp (human) (UniProt Q14147); assay: as above
T2 sequence: T1 sequence with E444D, C515Y

binding [1]: binds
binding [2]: binds
B1: FLAG-UPF1 (pcIneo-FLAG-UPF1) (protein, UniProt Q92900 1-1129)
chain: MSVEAYGPSSQTLTFLDTEEAELLGADTQGSEFEFTDFTLPSQTQTPPGGPGGPGGGGAGGPGGAGAGAAAGQLDAQVGPEGILQNGAVDDSVAKTSQLLAELNFEEDEEDTYYTKDLPIHACSYCGIHDPACVVYCNTSKKWFCNGRGNTSGSHIVNHLVRAKCKEVTLHKDGPLGETVLECYNCGCRNVFLLGFIPAKADSVVVLLCRQPCASQSSLKDINWDSSQWQPLIQDRCFLSWLVKIPSEQEQLRARQITAQQINKLEELWKENPSATLEDLEKPGVDEEPQHVLLRYEDAYQYQNIFGPLVKLEADYDKKLKESQTQDNITVRWDLGLNKKRIAYFTLPKTDSGNEDLVIIWLRDMRLMQGDEICLRYKGDLAPLWKGIGHVIKVPDNYGDEIAIELRSSVGAPVEVTHNFQVDFVWKSTSFDRMQSALKTFAVDETSVSGYIYHKLLGHEVEDVIIKCQLPKRFTAQGLPDLNHSQVYAVKTVLQRPLSLIQGPPGTGKTVTSATIVYHLARQGNGPVLVCAPSNIAVDQLTEKIHQTGLKVVRLCAKSREAIDSPVSFLALHNQIRNMDSMPELQKLQQLKDETGELSSADEKRYRALKRTAERELLMNADVICCTCVGAGDPRLAKMQFRSILIDESTQATEPECMVPVVLGAKQLILVGDHCQLGPVVMCKKAAKAGLSQSLFERLVVLGIRPIRLQVQYRMHPALSAFPSNIFYEGSLQNGVTAADRVKKGFDFQWPQPDKPMFFYVTQGQEEIASSGTSYLNRTEAANVEKITTKLLKAGAKPDQIGIITPYEGQRSYLVQYMQFSGSLHTKLYQEVEIASVDAFQGREKDFIILSCVRANEHQGIGFLNDPRRLNVALTRARYGVIIVGNPKALSKQPLWNHLLNYYKEQKVLVEGPLNNLRESLMQFSKPRKLVNTINPGARFMTTAMYDAREAIIPGSVYDRSSQGRPSSMYFQTHDQIGMISAGPSHVAAMNIPIPFNLVMPPMPPPGYFGQANGPAAGRGTPKGKTGRGGRQKNRFGLPGPSQTNLPNSQASQDVASQPFSQGALTQGYISMSQPSQMSQPGLSQPELSQDSYLGDEFKSQIDVALSQDSTYQGERAYQHGGVTGLSQY
